PubChem BioAssay AID1259308, NCATS | 2017
In all, the deposit lists about 59,000 reagents; this is a random part of them. About 1,510 of all reagents (2.6%) were called active. 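Calls use total luciferase alone and ignore viability, so some active siRNAs may act by altering cell number.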 A number with no mark means an inactive call. Not all columns of the deposit are shown.

- Aim: 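Knock-downs that increase output of a recombinant reporter protein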 (primary screen)
- Cell system: human HEK293 embryonic kidney cells stably expressing firefly luciferase (HEK-CMV-Luc2-Hygro)
- Reagent: single siRNA against human genes, 0.8 pmol siRNA per well
- Timing: 72 h
- Read-out: 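Reporter luminescence and viable-cell signal on separate replicate plates, given as percent of non-targeting control and median/MAD z-scores, plus per-cell luciferase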
- Reading the numbers: total luciferase, z-score: higher = more reporter protein produced
- Rule for the call: 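Active when the median/MAD z-score for overall luciferase is greater than 3; a gene was taken forward for validation with new siRNAs if at least two of its three siRNAs passed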
- Meaning of the calls: active = raised luciferase; inactive = no rise

Gene,PubChem SID,"total luciferase, z-score"
PKD1L3,SID160764608,-0.249
PKD1L3,SID160764609,0.378
PKD1L3,SID160764610,-0.579
SRCAP,SID160729333,0.0705
SRCAP,SID160729334,-0.668
SRCAP,SID160729335,-1.18
FOXO3,SID160766320,-0.273
FOXO3,SID160766330,-1.33
FOXO3,SID160766331,-2.13
OR2L2,SID160737823,-0.804
OR2L2,SID160737824,0.274
OR2L2,SID160737825,-0.621
KPNA3,SID160776351,0.0141
KPNA3,SID160776352,0.554
KPNA3,SID160776353,0.45
OTOS,SID160724873,-0.102
OTOS,SID160724874,1.42
OTOS,SID160724875,-0.272
LTA,SID160776753,-0.258
LTA,SID160776754,0.361
LTA,SID160776756,-0.3
KCNJ2,SID160776166,-0.407
KCNJ2,SID160776167,-0.578
KCNJ2,SID160776168,-0.712
UXS1,SID160750107,0.385
UXS1,SID160750108,1.15
UXS1,SID160750109,-0.123
MSL3,SID160729580,-0.962
MSL3,SID160729581,0.328
MSL3,SID160730484,-0.615
SDS,SID160729697,-0.0635
SDS,SID160729698,2.16
SDS,SID160729699,-2.05
HCFC2,SID160739285,0.178
HCFC2,SID160739286,-0.169
HCFC2,SID160739287,-0.6
DLG5,SID160721774,-0.223
DLG5,SID160721775,-0.22
DLG5,SID160721776,-0.048
TPSG1,SID160724334,-1.95
TPSG1,SID160724335,-1.95
TPSG1,SID160730904,0.109
FGFRL1,SID160741479,0.646
FGFRL1,SID160741480,0.624
FGFRL1,SID160741481,1.93
SMIM12,SID160754839,-0.0842
SMIM12,SID160754840,-0.493
SMIM12,SID160754841,0.704
ZNF724,SID160767800,-0.79
ZNF724,SID160767802,-0.205
ZNF724,SID160767803,-0.46
TIMM50,SID160754323,-0.711
TIMM50,SID160754324,0.028
TIMM50,SID160754325,0.387
C1GALT1C1L,SID160772175,-0.0679
C1GALT1C1L,SID160772176,-0.203
C1GALT1C1L,SID160772177,-1.25

2 entries already listed, arranged by “total luciferase, z-score”, high to low:
Gene,PubChem SID,"total luciferase, z-score"
ZNF724,SID160767802,-0.205
ZNF724,SID160767803,-0.46
